{
  "source": "patent US8530452B2",
  "about": "“Tricyclic boron compounds for antimicrobial therapy” (Micurx Pharmaceuticals, Inc., priority 2011, dated 2013)",
  "note": "Some of these results come from one statement about several compounds together. Some ranges recur; such a range may be that of the whole group of compounds.",
  "data": [
    {"tested_on": "P. aeruginosa", "assay": "MIC determination, antibacterial activity in vitro", "type": "cell-based, Pseudomonas aeruginosa", "conditions": "MIC ratio vs Example 10", "text": "The in vitro activity of compounds provided herein may be assessed by standard testing procedures such as the determination of minimum inhibitory concentration (MIC) as described in Approved Standard. Methods for Dilution Antimicrobial Susceptibility Tests for Bacteria that Grow Aerobically, 3rd ed., 1993, published by the National Committee for Clinical Laboratory standards, Villanova, Pa., USA. Low MIC values indicate high antibacterial activity, while high MIC values reveal a reduced antibacterial activity (with higher drug concentration required for pathogen eradication in the latter instance).", "values": [
      {"smiles": "Cl.NCC1OB2O[C@@H](CO)COc3cccc1c32", "note": "(stereo partly drawn) [Example 4, ((8S)-2-(Aminomethyl)-7,8-dihydro-2H-1,6,9-trioxa-9a-borabenzo[cd]azulen-8-yl)methanol hydrochloride]", "improvement in the activity against P. aeruginosa over reference compound of Example 10": "2-4 fold"},
      {"smiles": "Cl.NCC1OB2OC(CO)COc3cccc1c32", "note": "(stereo not shown) [Example 7]", "improvement in the activity against P. aeruginosa over reference compound of Example 10": "2-4 fold"},
      {"smiles": "Cl.NCC1OB2O[C@H](CO)COc3cccc1c32", "note": "(stereo partly drawn) [Example 1, ((8R)-2-(Aminomethyl)-7,8-dihydro-2H-1,6,9-trioxa-9a-borabenzo[cd]azulen-8-yl)methanol hydrochloride]", "improvement in the activity against P. aeruginosa over reference compound of Example 10": "2-4 fold"},
      {"smiles": "Cl.NC[C@H]1OB2O[C@H](CO)COc3cccc1c32", "note": "[Example 3, ((2S,8R)-2-(Aminomethyl)-7,8-dihydro-2H-1,6,9-trioxa-9a-borabenzo[cd]azulen-8-yl)methanol hydrochloride]", "improvement in the activity against P. aeruginosa over reference compound of Example 10": "2-4 fold"}
    ]}
  ]
}
